Experimental data: publication PMC8439649
These are yes or no findings as the source states them, for the method shown.

The chains behind the UniProt entries cited, without tags or fusion partners. Residues count along the entry.
UniProt Q8TB45, residues 1-230: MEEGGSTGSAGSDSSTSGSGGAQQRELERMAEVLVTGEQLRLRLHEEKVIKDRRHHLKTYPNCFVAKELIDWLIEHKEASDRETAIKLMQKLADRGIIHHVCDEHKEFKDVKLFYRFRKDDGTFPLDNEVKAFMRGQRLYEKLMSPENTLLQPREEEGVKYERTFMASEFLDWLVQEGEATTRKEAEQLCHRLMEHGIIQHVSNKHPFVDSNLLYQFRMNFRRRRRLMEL

Molecular target: DEPTOR DEP domain tandem (DEPt), residues 1-230 (human) (UniProt Q8TB45)
Test: SAXS; purified DEPt in gel filtration buffer at 2–14 mg/ml, batch mode; scattering fitted with crystal monomer, crystal dimer and cryo-EM models (CRYSOL); both purified

## DEPTOR DEP domain tandem (DEPt), residues 1-230 (from UniProt Q8TB45 1-230) (domain or fragment)
  binding: no binding (tested: 2–14 mg/ml)
